The nature of the data set: Body weight, heart/body weight ratio and non-fasting blood glucose during 14-day peptide infusion. The note with it: for heart/body weight ratio: after 14 days of infusion; for body weight: day 1 vs day 14 of peptide infusion. In kind it is in vivo, mouse.

Consider “H-FIAWLVKGR-NH2 (C-terminal amide; Human peptide fragments) [GLP-1(28-36)^amide]”, for which the heart/body weight ratio entry is “did not significantly affect” and the body weight result is listed as “did not significantly affect”.
As for “H-HAEGTFTSDVSSYLEGQAAKEFIAWLVKGR-NH2 [GLP-1(7-36)^amide]”, the heart/body weight ratio entry is recorded as “did not significantly affect” and the body weight entry is listed as “did not significantly affect”.

Source of the values: patent publication US11033607B2, “Peptides and methods for preventing ischemic tissue injury” (University Health Network, priority 2012, dated 2021).
